The experiment concerns BDF1 mice, B16 melanoma ip, median survival T/C. Nature of the experiment: NCI In Vivo Anticancer Drug Screen. Data for tumor model B16 Melanoma (intraperitoneal) in B6D2F1 (BDF1) mice. The following applies: T/C endpoint: median survival time, higher T/C = longer survival. A digest of the protocol: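 Survival or tumor size is measured after treatment of tumor-bearing mice and normalised to the vehicle-treated control group.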

Where [1] appears, read: dose: 4.0 mg/kg/injection, schedule: Q01DX009 (ip), vehicle: saline with Tween-80.
The mark [2] stands for this setting: dose: 8.0 mg/kg/injection, schedule: Q01DX009 (ip), vehicle: saline with Tween-80.
[3] abbreviates: dose: 400.0 mg/kg/injection, schedule: Q01DX009 (ip), vehicle: saline with Tween-80.
[4] abbreviates: dose: 100.0 mg/kg/injection, schedule: Q01DX009 (ip), vehicle: saline with Tween-80.
Setting [5] is: dose: 25.0 mg/kg/injection, schedule: Q01DX009 (ip), vehicle: Klucel (hydroxypropylcellulose) (HPC).
Setting [6] is: dose: 50.0 mg/kg/injection, schedule: Q01DX009 (ip), vehicle: Klucel (hydroxypropylcellulose) (HPC).
Setting [7] is: dose: 200.0 mg/kg/injection, schedule: Q01DX009 (ip), vehicle: saline.
The mark [8] stands for this setting: dose: 100.0 mg/kg/injection, schedule: Q01DX009 (ip), vehicle: Klucel (hydroxypropylcellulose) (HPC).
The mark [9] stands for this setting: dose: 200.0 mg/kg/injection, schedule: Q01DX009 (ip), vehicle: Klucel (hydroxypropylcellulose) (HPC).
The mark [10] stands for this setting: dose: 400.0 mg/kg/injection, schedule: Q01DX009 (ip), vehicle: Klucel (hydroxypropylcellulose) (HPC).

The list does not hold the whole screen: it is rich in T/C values a quarter to a half above the control, in often repeated tests (any T/C) and in doses without a T/C. Further doses and runs are listed elsewhere. T/C: endpoint of the treated group in % of that of the vehicle group. Some doses have a count of surviving animals in place of a T/C: the source files T/C as zero there, which appears to mark a toxic dose or a test without result, not a measured value. Some doses without a T/C left all or most animals alive at the check, yet need not have been tolerated: survival well below the control is almost never listed, so the zero probably covers shortened survival too. Counts of survivors are from the toxicity check (mostly the fifth day) where no day follows; animals may have died later. Schedules are NCI's codes, taken here to give the interval after Q, in days (D) or hours (H), and the number of doses after X. Some doses were run more than once; their values stand side by side, smallest first. For survival time, the PubChem record calls one and a half times the control and up active, and a quarter to a half above the control has no call in these data; cut-offs in other NCI protocols can differ. Some T/C values carry the count of animals alive at the toxicity check (mostly the fifth day); without a count, all were alive then. Brackets with × say how often a value occurs here.

Turning to `COC(C(=O)C(O)C(C)O)C1Cc2cc3cc(OC4CC(OC(C)=O)C(OC5CC(O)C(OC)C(C)O5)C(C)O4)cc(O)c3c(O)c2C(=O)C1OC1CC(OC2CC(OC3CC(C)(O)C(OC(=O)C(C)C)C(C)O3)C(O)C(C)O2)C(O)C(C)O1` (configuration not stated), the T/C is 138 % of control (dose: 0.12 mg/kg/injection, schedule: Q01DX009 (ip), vehicle: saline with Tween-80); 128, 136, 138 % of control (dose: 0.12 mg/kg/injection, schedule: Q01DX009 (ip), vehicle: saline); 137 % of control (dose: 0.25 mg/kg/injection, schedule: Q01DX009 (ip), vehicle: saline with Tween-80); 140, 153, 159 % of control (2×) (dose: 0.5 mg/kg/injection, schedule: Q01DX009 (ip), vehicle: saline with Tween-80); 130 % of control (dose: 0.5 mg/kg/injection, schedule: Q01DX009 (ip), vehicle: saline); 156, 169, 180, 197 % of control (dose: 1.0 mg/kg/injection, schedule: Q01DX009 (ip), vehicle: saline with Tween-80). Also, the T/C by setting is: (dose: 1.0 mg/kg/injection, schedule: Q01DX009 (ip), vehicle: saline) 142 % of control; (dose: 2.0 mg/kg/injection, schedule: Q01DX009 (ip), vehicle: saline with Tween-80) 146, 179, 180, 186 % of control [9 of 10 alive]. Moreover, the survivor count reads like this: (dose: 2.0 mg/kg/injection, schedule: Q01DX009 (ip), vehicle: saline) 10 of 10; under setting [1], 0 of 10, 3 of 10, 9 of 10; (dose: 4.0 mg/kg/injection, schedule: Q01DX009 (ip), vehicle: saline) 6 of 10 and 9 of 10; under setting [2], 0 of 10.
Consider `COc1ccc2c(c1)CCC(c1ccccc1)=C2c1ccc(OCCN2CCCC2)cc1`, for which the survivor count (dose: 48.0 mg/kg/injection, schedule: Q01DX009 (ip), vehicle: saline sonified) was 5 of 6.
On to `CC(C)c1ccc(C(=O)CCCCl)cc1`, for which the survivor count under setting [3] was 7 of 10.
On to `COc1ccc2nc3cc(Cl)ccc3c(NCCO)c2c1`, for which the survivor count reads like this: (dose: 150.0 mg/kg/injection, schedule: Q01DX009 (ip), vehicle: saline with Tween-80) 5 of 6; (dose: 300.0 mg/kg/injection, schedule: Q01DX009 (ip), vehicle: saline with Tween-80) 0 of 6.
`BrC1c2cccc3cccc(c23)C1Br` (configuration not stated): the survivor count by setting is: under setting [4], 10 of 10; (dose: 200.0 mg/kg/injection, schedule: Q01DX009 (ip), vehicle: saline with Tween-80) 10 of 10.
With `C[C@]12CC[C@H](O)C[C@@]1(O)CC[C@@H]1[C@@H]2CC[C@]2(C)[C@@H](c3ccc(=O)oc3)CC[C@]12O`, the survivor count under setting [4] was 10 of 10.
Turning to `CCCCCCCCCCCCCCCCCCNC(=O)Oc1ccc(Cl)c(C)c1`, the survivor count (dose: 400.0 mg/kg/injection, schedule: Q04DX003 (ip), vehicle: gum acacia) was 10 of 10.
Take `Cc1cnc(/C=N\NC(N)=S)c2cccc(N)c12`: the T/C reads like this: (dose: 12.5 mg/kg/injection, schedule: Q01DX009 (ip), vehicle: saline with Tween-80, evaluated on day 45) 136 % of control; (dose: 12.5 mg/kg/injection, schedule: Q01DX009 (ip), vehicle: saline with Tween-80, evaluated on day 60) 125 % of control; under setting [5], 129 % of control; (dose: 25.0 mg/kg/injection, schedule: Q01DX009 (ip), vehicle: saline with Tween-80, evaluated on day 45) 142 % of control; (dose: 25.0 mg/kg/injection, schedule: Q01DX009 (ip), vehicle: saline with Tween-80, evaluated on day 60) 135 % of control; under setting [6], 128 % of control. In addition, the survivor count under setting [4] is 7 of 10.
Regarding `Cc1ccc(C(=O)NCCCOc2ccc(N3C(N)=NC(N)=NC3(C)C)cc2Cl)cc1S(=O)(=O)F`, the survivor count (dose: 50.0 mg/kg/injection, schedule: Q01DX009 (ip), vehicle: saline) is given as 10 of 10; the survivor count (dose: 100.0 mg/kg/injection, schedule: Q01DX009 (ip), vehicle: saline) was 0 of 10; the survivor count under setting [7] is reported as 0 of 10.
Regarding `O=C1N(Br)C(=O)C(c2ccc(Cl)cc2)(c2ccc(Cl)cc2)N1Br`, the survivor count under setting [6] is given as 10 of 10, the survivor count under setting [8] is recorded as 10 of 10 and the survivor count under setting [9] is 0 of 10.
Turning to `COc1cc2c(ccc3c4cc(OC)c(OC)cc4c[n+](C)c23)cc1O`, the survivor count under setting [3] is 6 of 10.
Consider `O=C1CN=C(c2ccccc2)c2cc([N+](=O)[O-])ccc2N1`, for which the survivor count runs as follows: (dose: 0.78 mg/kg/injection, schedule: Q01DX009 (ip), vehicle: Klucel (hydroxypropylcellulose) (HPC)) 10 of 10; (dose: 1.56 mg/kg/injection, schedule: Q01DX009 (ip), vehicle: Klucel (hydroxypropylcellulose) (HPC)) 10 of 10; (dose: 6.25 mg/kg/injection, schedule: Q01DX009 (ip), vehicle: Klucel (hydroxypropylcellulose) (HPC)) 10 of 10; under setting [5], 9 of 10; under setting [9], 10 of 10.
As to `CCO/C=C1\SC(=S)N(c2ccc(OCC)cc2)C1=O`, the survivor count under setting [10] is on record as 10 of 10.
In the case of `CCO/C=C1\SC(=S)N(c2ccco2)C1=O`, the survivor count under setting [7] is recorded as 4 of 10.
As for `CCN(CC)CCCC(C)NC(C)CCCN(CC)CC` (configuration not stated), the survivor count runs as follows: under setting [5], 10 of 10; (dose: 25.0 mg/kg/injection, schedule: Q01DX009 (ip), vehicle: water) 10 of 10; under setting [6], 5 of 10; (dose: 50.0 mg/kg/injection, schedule: Q01DX009 (ip), vehicle: water) 10 of 10; under setting [8], 1 of 10; (dose: 100.0 mg/kg/injection, schedule: Q01DX009 (ip), vehicle: water) 0 of 10. In addition, the survivor count is 0 of 10 under setting [9] and 0 of 10 under setting [10].
For `O=c1oc(-c2ccc(Cl)cc2)nc2cc(Cl)ccc12`, the survivor count is on record as 3 of 10 under setting [6] and 0 of 10 under setting [8].
For `Nc1nc(=S)c2[nH]cnc2[nH]1`, the T/C (dose: 1.0 mg/kg/injection, schedule: Q01DX009 (ip), vehicle: saline sonified) was 137 % of control. The survivor count is recorded as 6 of 6 (dose: 4.0 mg/kg/injection, schedule: Q01DX009 (ip), vehicle: saline sonified); 6 of 6 under setting [1]; 10 of 10 (dose: 4.0 mg/kg/injection, schedule: Q01DX009 (ip), vehicle: suspension in saline); 6 of 6 under setting [2]; 6 of 6 (dose: 16.0 mg/kg/injection, schedule: Q01DX009 (ip), vehicle: saline with Tween-80).
For the compound `CCN(CC)Cc1c(C)cc2oc(=O)c3c(c2c1O)CCCC3`, the survivor count (dose: 128.0 mg/kg/injection, schedule: Q01DX009 (ip), vehicle: Klucel (hydroxypropylcellulose) (HPC)) is listed as 2 of 5.
For the compound `O=C1C(=O)c2ccccc2C(O)=C1CCCc1ccc(OCc2ccccc2)cc1`, the survivor count (dose: 40.0 mg/kg/injection, schedule: Q01DX009 (ip), vehicle: saline with Tween-80) was 6 of 10.
Regarding `O=C1CCNC(=O)N1OS(=O)(=O)c1ccccc1`, the survivor count is, setting by setting: under setting [6], 10 of 10; under setting [8], 9 of 10; under setting [9], 4 of 10.
With `Cc1cccc(NC(=O)CCl)c1`, under “dose: 200.0 mg/kg/injection, schedule: Q01DX009 (ip), vehicle: carboxymethylcellulose (CMC)”, the survivor count was 6 of 10.
Take `NC1(C(=O)O)CSSC1`: the survivor count under setting [8] is 6 of 10.
For the compound `Cc1ccccc1-n1c(C)nc2ccccc2c1=O`, the survivor count runs as follows: under setting [5], 10 of 10; under setting [8], 9 of 10; under setting [9], 9 of 10.

Source of the values: PubChem BioAssay AID192 (DTP/NCI, 2004).
